# Screen size: about 320,000 compounds; about 740 (0.23%) were called active. The shares of active, inactive and inconclusive entries below differ from those in the screen. The call rests on the fitted dose curve; in most records, active means well fitted activation curve with a large enough effect; inconclusive means small, poorly fitted or top-dose-only effect; inactive means no such curve, though single readings can be large or run the other way. Potencies of inconclusive entries are doubtful fits and often do not repeat. Some compounds were tested as several samples or in several runs, with calls that do not always agree.
# Assay: qHTS Assay for Small Molecule Inhibitors of Mitochondrial Division or Activators of Mitochondrial Fusion; further: nearly all actives have a fitted effect of over 45% in size;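 on growth rescue (activation): temperature-sensitive fusion mutants such as fzo1-1 at 37 °C on non-fermentable ethanol glycerol medium; % of control where 0% means no effect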
# Settings: S. cerevisiae fusion-defective mutant growth rescue, CellTiterGlo 48 h; growth rescue (activation): at 46.1 µM (top of the series) unless noted
# Method in brief: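 Luminescent cell viability in 1536-well qHTS format served as the measure of rescued growth in ts fusion-mutant S. cerevisiae cultured on non-fermentable YPEG for 48 hours at 37C.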
# Potency means the concentration at half of the fitted maximal effect.
SMILES,Potency,growth rescue (activation)
CN1CCCN(C(=O)Cc2c(Cl)cccc2Cl)c2nc3ccccc3nc21,"inconclusive: 12.6 µM [activator, partial curve]",–
Cc1c(Cl)cccc1NC(=O)NC1CCCCC1,–,inactive: -0.0626%
COc1ccc2c(c1)[C@@H]1[C@H](CO2)[C@H](c2ccccc2)[C@]2(C)C(=O)Nc3ccc(C)cc3C(=O)N12,"inconclusive: 22.4 µM [activator, single point]",–
COC(=O)C1=C(C)NC(c2c(O)ccc3ccccc23)C(C(=O)OC)=C1C (centres undefined),"inconclusive: 7.94 µM [activator, partial curve]",–
Cc1ccc(C)c(N2CCN(C(=O)C3CCCN(c4ncnc5c4nc4n5CCCCC4)C3)CC2)c1 (centres undefined),"inconclusive: 17.8 µM [activator, partial curve]",–
CC(/C=C/c1ccccc1F)=N\NC(=O)c1ccccc1,–,inactive: -1.49%
Cc1ccccc1C(=O)NC(=S)NCCC1=CCCCC1,–,inactive: 5.32%
Cc1ccc(C)c(N2CCN(C(=O)C3CCN(S(=O)(=O)c4c(C)noc4C)CC3)CC2)c1,–,inactive: 4.79%
Cc1oc2ccc(OCc3ccc(Br)cc3)cc2c1C(=O)O,"inconclusive: 5.01 µM [activator, full curve, poor fit]",–
Cc1ccc(Cl)cc1NC(=O)C1CCCN(c2cnccn2)C1 (centres undefined),"inconclusive: 0.355 µM [activator, full curve, poor fit]",–
CC1CCN(C(=O)c2ccc(NC3=C(Cl)C(=O)N(Cc4ccccc4)C3=O)cc2)CC1,"inconclusive: 31.6 µM [activator, single point]",–
COc1ccc(-c2cc(C(=O)N(C)CCc3ccc(OC)c(OC)c3)c3ccccc3n2)cc1,–,inactive: -3.57%
Cc1cc(S(=O)(=O)N2CCOCC2)ccc1OCC(=O)NCCCn1ccnc1,–,inactive: -1.69%
CCCOc1ccc(C(=O)N/N=C/c2ccc(-c3ccc(S(=O)(=O)Nc4ncccn4)cc3)o2)cc1,"inconclusive: 5.62 µM [activator, single point]",–
COC(=O)c1sc2nc(C)nc(SCC(=O)C(C)(C)C)c2c1C,"inconclusive: 0.562 µM [activator, full curve, poor fit]",–
CCC(CC)NC(=O)c1nn(Cc2ccccc2)c(=O)c2ccccc12,"inconclusive: 31.6 µM [activator, single point]",–
Cc1ccc(NC(=O)CCC(=O)N/N=C/c2cc([N+](=O)[O-])ccc2O)cc1,–,inactive: 4.95%
CCCC(=O)NC(=S)Nc1ccc(S(=O)(=O)Nc2ccc(OCC)cc2)cc1,active: 15.8 µM,–
CC(=O)Nc1c(Cl)cc([N+](=O)[O-])c2ccccc12,"inconclusive: 7.94 µM [activator, partial curve]",–
C/C(=N/Nc1nc(-c2ccccc2)cc(-c2ccc(F)cc2)n1)c1cccc(N)c1,"inconclusive: 35.5 µM [activator, single point]",–
CNC(=O)c1[nH]nc2c1CCc1ccccc1-2,active: 10 µM,–
O=C(/C=C/c1ccco1)NCc1ccc2c(c1)OCO2,–,inactive: -4.46%
O=C1C=C(c2cccc(CO)c2)C[C@@H](c2ccc(Cl)cc2)C1,"inconclusive: 8.91 µM [activator, single point]",–

# Random excerpt: 3 records from the list, in no set order.
SMILES,Potency,growth rescue (activation)
Cc1ccc(NC(=O)CCC(=O)N/N=C/c2cc([N+](=O)[O-])ccc2O)cc1,–,inactive: 4.95%
CC(=O)Nc1c(Cl)cc([N+](=O)[O-])c2ccccc12,"inconclusive: 7.94 µM [activator, partial curve]",–
CC1CCN(C(=O)c2ccc(NC3=C(Cl)C(=O)N(Cc4ccccc4)C3=O)cc2)CC1,"inconclusive: 31.6 µM [activator, single point]",–

# Entries of single compounds, looked up by structure.
# COC(=O)C1=C(C)NC(c2c(O)ccc3ccccc23)C(C(=O)OC)=C1C (centres undefined) as listed: Potency: inconclusive: 7.94 µM [activator, partial curve]
# CC(/C=C/c1ccccc1F)=N\NC(=O)c1ccccc1 as listed: growth rescue (activation): inactive: -1.49%

# Additional structures follow:

SMILES,Potency,growth rescue (activation)
CCc1noc(C)c1C(=O)OC(C)C(=O)c1c(C)[nH]c2ccccc12 (centres undefined),"inconclusive: 17.8 µM [activator, single point]",–
Cc1cccc(N2CCN(CC(O)COc3ccccc3Cl)CC2)c1 (centres undefined),"inconclusive: 5.62 µM [activator, single point]",–
OC(CN1CCC(Cc2ccc(F)cc2)CC1)c1ccc(Cl)cc1 (centres undefined),active: 2.91 µM,–
Cc1ccc(C)c(N2CCN(S(=O)(=O)c3csc(C(N)=O)c3)CC2)c1,"inconclusive: 10 µM [activator, partial curve]",–
COc1ccccc1NC(=O)CNC(c1ccccc1)c1ccccc1,"inconclusive: 22.4 µM [activator, partial curve]",–
Cc1occc1C(=O)Nc1cccc2ccccc12,"inconclusive: 22.4 µM [activator, single point]",–
Clc1ccc(OCc2nnc(SCc3nnc(-c4ccccc4)o3)o2)c(Cl)c1,"inconclusive: 7.08 µM [activator, partial curve]",–
CCOC(=O)c1c(Cc2cccc(Cl)c2)c[nH]c1C,"inconclusive: 12.6 µM [activator, partial curve]",–
COC(=O)c1ccc(C2c3[nH]c4ccccc4c3C[C@H]3C(=O)N(C4CC4)CC(=O)N23)cc1 (some centres undefined),"inconclusive: 31.6 µM [activator, single point]",–
CC1=NN(c2nc(-c3ccccc3)cs2)C(=O)C1N=Nc1ccccc1 (centres undefined),–,inactive: 2.26%
Cc1cccc(C(=O)N/N=C/c2cc(Br)c(Br)o2)c1,"inconclusive: 31.6 µM [activator, single point]",–
O=C(NCC(c1ccco1)N1CCc2ccccc2C1)c1cccc([N+](=O)[O-])c1 (centres undefined),"inconclusive: 15.8 µM [activator, single point]",–
Cc1cccc(C2c3[nH]c4ccccc4c3CCN2C(=O)c2cc(-c3cccn3C)n[nH]2)n1 (centres undefined),"inconclusive: 17.8 µM [activator, single point]",–
CC(C)C(C)NC(=O)CN1C(=O)NC2(CCc3ccccc3C2)C1=O (centres undefined),"inconclusive: 3.55 µM [activator, partial curve]",–
O=C(COC(=O)c1c2c(nc3ccccc13)CCCCC2)NCc1ccc2c(c1)OCO2,"inconclusive: 22.4 µM [activator, single point]",–
Cc1ccc(N2CC(C(=O)Nc3cc(C(F)(F)F)ccc3N3CCCC3)CC2=O)cc1 (centres undefined),"inconclusive: 25.1 µM [activator, single point]",–
O=C(CNC(=O)c1ccccc1Br)N/N=C/c1ccc(O)cc1,"inconclusive: 14.1 µM [activator, partial curve]",–
Cc1nc(NC(=O)c2cnccn2)ccc1Br,–,inactive: 16.7%
CC(=O)[C@H]1CC[C@H]2[C@@H]3CCC4=CC(=O)CC[C@]4(C)[C@H]3CC[C@]12C,active: 18.4 µM,–
Cc1cc(C)c(C#N)c(SCc2nnc(-c3ccccc3[N+](=O)[O-])o2)n1,"inconclusive: 6.31 µM [activator, partial curve]",–
COc1cccc(/C=N/NC(=O)c2cc(-c3ccccn3)nc3ccccc23)c1O,–,inactive: 0.177%
CC(=O)N1CCN(c2ccc(OC[C@H]3CO[C@](Cn4ccnc4)(c4ccc(Cl)cc4Cl)O3)cc2)CC1,active: 0.708 µM,–
Cc1ccccc1OCCCSc1nc2ccccc2[nH]1,"inconclusive: 15.8 µM [activator, partial curve]",–

SMILES,Potency,growth rescue (activation)
COc1ccc(C2(c3ccc(OC)cc3)NC(=O)N(CC(=O)Nc3ccc(C(N)=O)cc3)C2=O)cc1,"inconclusive: 2.51 µM [activator, full curve]",–
Cc1cc(C)nc(N(C#N)Cc2cccc3ccccc23)n1,"inconclusive: 17.8 µM [activator, partial curve]",–
Cc1oc(-c2ccccc2F)nc1CS(=O)(=O)CC(=O)NC(C)CCc1ccccc1 (centres undefined),active: 11.2 µM,–
CC(C)n1ncc2c(C(=O)N3CCN(Cc4ccc(Cl)s4)CC3)cc(C3CC3)nc21,"inconclusive: 17.8 µM [activator, single point]",–
CCc1ccccc1NC(=O)c1cnc2scc(C)n2c1=O,"inconclusive: 10 µM [activator, partial curve]",–
COCCN=c1scc(-c2ccccc2)n1/N=C/c1c[nH]c2ccccc12,"inconclusive: 15.8 µM [activator, partial curve]",–
CC(Sc1nnc(NCc2ccccc2)s1)C(=O)Nc1ccc2c(c1)C(=O)c1ccccc1C2=O (centres undefined),"inconclusive: 8.91 µM [activator, partial curve]",–
Cn1ccnc1SCC(=O)Nc1ccc(Oc2ccccc2)cc1,–,inactive: -6.88%
CC(C)(C)c1ccc(-n2ncc3c2CCCC3NC(=O)CN2CCCCC2=O)cc1 (centres undefined),active: 4.47 µM,–
O=C(c1ccccc1)N1N=C(c2ccccc2)CC1c1cccs1 (centres undefined),"inconclusive: 17.8 µM [activator, single point]",–
CC(C)CCNC(=O)c1sc2ccc(S(=O)(=O)N3CCCCC3)cc2c1N,"inconclusive: 35.5 µM [activator, single point]",–
COc1ccc(CNC(=O)c2cccc(S(=O)(=O)N3CCN(c4ccc(F)cc4)CC3)c2)cc1,"inconclusive: 15.8 µM [activator, partial curve]",–
COC(=O)CC1COc2ccccc2N1C(=O)/C=C/c1ccccc1 (centres undefined),"inconclusive: 35.5 µM [activator, single point]",–
O=C(Nc1nc2ccccc2s1)c1cc(-c2ccccc2)nn1-c1ccccc1,–,inactive: 14.6%
FC(F)(F)c1ccnc(NCc2ccc(Cl)cc2)n1,"inconclusive: 25.1 µM [activator, single point]",–
CC(C)C[C@H](CO)Nc1nc(N(C)c2cccc(Cl)c2)c2ncn(C(C)C)c2n1,"inconclusive: 12.6 µM [activator, partial curve]",–
Cc1ccc(C2CC(c3cccs3)=NN2C(=O)c2ccc(Br)o2)cc1 (centres undefined),active: 2.82 µM,–
O=C1C=C(c2ccccc2)OC(c2ccccc2)O1 (centres undefined),–,inactive: -0.251%
COc1cc2c(cc1OC)C(C)N(C(=O)c1cc3c(s1)-c1c(C)cccc1OC3)CC2 (centres undefined),active: 25.1 µM,–
N#Cc1cc(-c2cccc(Cl)c2)c[nH]c1=O,–,inactive: 0.286%
Cc1nn(-c2ccccc2)c(Cl)c1C(=O)Nc1nnc(C2CCCC2)s1,"inconclusive: 17.8 µM [activator, single point]",–
CNC(=S)N/N=C(\C)c1ccc(C(C)(C)C)cc1,"inconclusive: 31.6 µM [activator, single point]",–
N#Cc1ncc(-c2ccc3c(c2)OCCOCCOCCOCCOCCO3)nc1C#N,active: 20 µM,–

# From PubChem BioAssay AID485298 (National Center for Advancing Translational Sciences (NCATS), 2010)
